In PubChem BioAssay AID2551 (National Center for Advancing Translational Sciences (NCATS), 2010):
The campaign covered roughly 310,000 compounds. About 17,000 (5.5%) were called active. The shares of active, inactive and inconclusive entries below differ from those in the screen. The call rests on the fitted dose curve; in most records, active means well fitted inhibition curve with a large enough effect; inconclusive means small, poorly fitted or top-dose-only effect, or effect the other way; inactive means no such curve, though single readings can be large or run the other way. Potencies of inconclusive entries are doubtful fits and often do not repeat.

Chains of the proteins cited; added tags and fusions are not shown. Lines headed by an entry give the natural chain unless they say otherwise; changes in a name come on top.
UniProt P51450: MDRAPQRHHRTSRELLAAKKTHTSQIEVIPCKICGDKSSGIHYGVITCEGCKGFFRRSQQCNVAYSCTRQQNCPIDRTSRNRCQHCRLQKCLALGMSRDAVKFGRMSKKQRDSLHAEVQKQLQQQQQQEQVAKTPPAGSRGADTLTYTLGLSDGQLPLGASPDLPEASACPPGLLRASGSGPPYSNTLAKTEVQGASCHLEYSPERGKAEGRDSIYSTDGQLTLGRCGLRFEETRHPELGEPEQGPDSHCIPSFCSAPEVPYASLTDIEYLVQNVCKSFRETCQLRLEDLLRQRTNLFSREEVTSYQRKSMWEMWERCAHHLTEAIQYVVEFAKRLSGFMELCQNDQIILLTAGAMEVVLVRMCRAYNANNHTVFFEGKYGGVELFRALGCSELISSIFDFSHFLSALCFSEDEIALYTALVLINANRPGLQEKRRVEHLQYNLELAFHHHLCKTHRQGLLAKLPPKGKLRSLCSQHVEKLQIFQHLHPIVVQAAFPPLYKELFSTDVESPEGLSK

biological target: Nuclear receptor ROR-gamma (Mus musculus) (UniProt P51450); assay: qHTS for inhibitors of ROR gamma transcriptional activity; conditions: Drosophila S2 Gal4-RORgamma UAS-luciferase reporter, 20 h; series mostly up to 53.6 µM; further: nearly all actives have a fitted effect of over 60% in size
How it was run: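 Using a luciferase readout, inhibitors were identified by reduced reporter activity in Drosophila cells coexpressing a copper-inducible Gal4–ROR gamma fusion and UAS-driven Photinus luciferase, incubated 20 hr after 700 uM copper sulfate.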
Potency means the concentration at half of the fitted maximal effect.

Row | SMILES | Potency
1 | COC(=O)[C@H](Cc1ccccc1)NC(=O)O[C@H]1C(=O)c2ccc(OC)cc2O[C@@H]1c1ccc2c(c1)OCO2 | inconclusive: 35.5 µM [activator, single point]
2 | O=C1CN(S(=O)(=O)c2ccc(Cl)cc2)CC(=O)N1CCc1ccccc1 | inactive
3 | OCCN1CCN(c2ncnc3c2c(-c2ccccc2)cn3-c2ccc(Br)cc2)CC1 | inconclusive: 8.91 µM [inhibitor, partial curve]
4 | O=C(c1ccco1)N1CCN(C(=O)c2cnn3c(C(F)(F)F)cc(-c4cccs4)nc23)CC1 | inactive
5 | CCn1cc(/C=C(/C#N)S(=O)(=O)c2ccccc2)cn1 | inactive
6 | COc1ccc(CNC(=O)CN(C(=O)CCC(=O)Nc2nccs2)c2ccc3c(c2)OCO3)cc1 | inactive
7 | N=c1oc2c3c4c(cc2cc1C(=O)Nc1ccccc1)CCCN4CCC3 | inconclusive: 0.126 µM [activator, full curve]
8 | COc1ccc(CCNc2ncnc3cc(OC)c(OC)cc23)cc1OC | inconclusive: 35.5 µM [inhibitor, single point]
9 | COc1cccc(OCc2cc(C(=O)NCc3ccccn3)no2)c1 | inconclusive: 28.2 µM [inhibitor, single point]
10 | CCCc1c(C(=O)Nc2ccc(F)cc2F)cnn1-c1ccccc1 | inconclusive: 15.8 µM [activator, partial curve]
11 | CCC(Oc1ccccc1)C(=O)NC1CCSC1=O (stereo unspecified) | inconclusive: 15.8 µM [inhibitor, single point]
12 | COc1ccc(-c2noc(N3CCC(C(=O)NCc4ccc(F)cc4)CC3)n2)cc1 | inconclusive: 22.4 µM [inhibitor, partial curve, poor fit]
13 | COCCn1nnnc1C(c1cc2cccc(C)c2[nH]c1=O)N1CCN(c2ccccc2F)CC1 (stereo unspecified) | inactive
14 | COC(=O)c1ccccc1NC(=S)NC(NC(=O)COc1ccccc1)C(Cl)(Cl)Cl (stereo unspecified) | active: 5.62 µM
15 | Cc1cc[n+](-c2nc3ccccc3nc2[N-]S(=O)(=O)c2cccs2)cc1C | inactive
16 | O=C(COc1ccc(Br)cc1)N1CCC(c2ccccc2)C1 (stereo unspecified) | inconclusive: 31.6 µM [activator, partial curve]
17 | CCN(C(=S)NCc1ccccc1)c1ccccc1 | active: 14.1 µM
18 | Clc1ccccc1OCCCOc1cccc2cccnc12 | inconclusive: 25.1 µM [inhibitor, single point]
19 | COc1ccc(-c2nc(CN(C)C(C)c3ccon3)c(C)o2)c(C)c1C (stereo unspecified) | inconclusive: 25.1 µM [inhibitor, single point]
20 | Nc1nonc1C(=O)NCCNCc1ccccc1OCc1ccccc1F | inconclusive: 12.6 µM [activator, partial curve]
21 | CCN(C(=S)Nc1ccc(OC(F)F)cc1)C1CCCCC1 | inconclusive: 22.4 µM [inhibitor, single point]
22 | O=C(NCc1ccc2[nH]c3c(c2c1)CCCC3)c1ccc(S(=O)(=O)N2CCCC2)cc1 | inconclusive: 11.2 µM [activator, partial curve]
23 | Cc1ccc(S(=O)(=O)N2CCN(c3nc4ccccc4nc3-n3nc(C)cc3C)CC2)cc1 | inactive

Some of the entries above in another layout.
CCN(C(=S)NCc1ccccc1)c1ccccc1
  Potency: active: 14.1 µM
Clc1ccccc1OCCCOc1cccc2cccnc12
  Potency: inconclusive: 25.1 µM [inhibitor, single point]

Additional results:

Row | SMILES | Potency
24 | CCOC(=O)C1CCN(S(=O)(=O)c2cc(Br)cc3c2N(C(C)=O)C(C)C3)CC1 (stereo unspecified) | inactive
25 | COc1ccccc1CN(C)C(=O)c1cc(C)nc2ccccc12 | inconclusive: 20 µM [activator, partial curve, poor fit]
26 | Cc1ccc(-n2nc3c(c2NC(=O)c2c(-c4ccccc4Cl)noc2C)CSC3)cc1 | inactive
27 | C[C@H](CN1c2ccccc2Sc2cccnc21)N(C)C | inactive
28 | COc1cccc(C(=O)Oc2ccccc2/C=C\C(=O)c2cc3ccccc3o2)c1 | inconclusive: 35.5 µM [inhibitor, single point]
29 | COc1ccc(CCNC(=S)NCCc2c[nH]c3ccccc23)cc1 | active: 12.6 µM
30 | CCOc1nc(C)nc(NC(=O)NS(=O)(=O)c2ccccc2Cl)n1 | inconclusive: 3.16 µM [inhibitor, single point]
31 | O=C(N/N=C/c1cc(Cl)cc([N+](=O)[O-])c1O)c1cc(-c2ccccn2)nc2ccccc12 | active: 5.62 µM
32 | CCOC(=O)c1cc(CC)sc1NC(=O)C(c1ccccc1)c1ccccc1 | inactive
33 | O=C(C1CCN(S(=O)(=O)N2CCOCC2)CC1)N1CCN(c2ccc(F)cc2)CC1 | inactive
34 | C/C(=N\NC(N)=S)C1=CCC2C3CC[C@H]4CC(O)CC[C@]4(C)C3CC[C@]12C (stereo partly specified) | active: 2.51 µM
35 | Cc1ccc(NC(=O)Cn2nnc3ccccc32)c(C)c1 | inactive
36 | CCc1ccc(CNCc2ccc(OCC(O)CN(C)Cc3ccccc3)cc2)nc1 (stereo unspecified) | inconclusive: 35.5 µM [inhibitor, single point]
37 | O=C(NN=C1CCCC1)c1cc(Br)ccc1O | inconclusive: 28.2 µM [inhibitor, single point]
38 | C/C(=C\c1ccc(C(=O)O)cc1)c1ccc2c(c1)C(C)(C)CCC2(C)C | inconclusive: 7.08 µM [inhibitor, full curve]
39 | COc1ccc(C(C(=O)NC(C)(C)C)N(C(=O)CCC(=O)Nc2cc(C)on2)c2cc(C)cc(C)c2)cc1 (stereo unspecified) | inconclusive: 35.5 µM [activator, single point]
40 | CC1CCCN(c2ccc(C(=O)NCc3cccs3)cn2)C1 (stereo unspecified) | inconclusive: 1 µM [activator, full curve, poor fit]
41 | CCC(C)c1c(O)nc(SCC(=O)Nc2ccccc2)[nH]c1=O (stereo unspecified) | inconclusive: 35.5 µM [activator, single point]
42 | COc1cccc(-c2nc3cc(C)ccc3o2)c1 | inconclusive: 22.4 µM [inhibitor, single point]
43 | O=C(NCC1CCCO1)c1ccc(Oc2ccc([N+](=O)[O-])cc2)cc1 (stereo unspecified) | inconclusive: 11.2 µM [activator, partial curve]
44 | Oc1ccc(Br)cc1CNn1cnnc1 | inactive
45 | O=C(NC(=S)Nc1cc([N+](=O)[O-])ccc1Cl)c1ccccc1 | inactive
46 | C/C(N)=C(/C#N)C(=O)CSc1nc(-c2ccccc2)c(-c2ccccc2)o1 | inconclusive: 22.4 µM [activator, single point]
